Experimental data taken from patent US10391201B2, “Gene therapy” (Ospedale San Raffaele S.r.l., priority 2014, dated 2019).
Like-named read-outs stand apart in the source and are kept apart here. At least one structure is not confirmed: it was looked up by name or label, or the drawing left a doubt.

Legend:
Format in all cases: cell-based, human
CD4+ T cells = test: SINLV-GFP lentiviral transduction of activated CD4+ T cells; details: MOI 1, 20 μm FK506 or 10 μg/mL rapamycin
Procedure: (§1) CD4^+ T cells were activated in RPMI, supplemented with 10% FBS, penicillin (100 IU/mL), streptomycin (100 μg/mL), 2% glutamine, phytohaemagglutanin (PHA) (2 μg/mL, Roche) and IL-2 (300 IU/mL, Novartis) for three days and maintained in RPMI supplemented with 10% FBS, penicillin (100 IU/mL), streptomycin (100 μg/mL), 2% glutamine and IL-2 (300 UI/mL). Monocyte-derived macrophages (MDM) were differentiated from isolated CD14^+ monocytes in DMEM supplemented with 10% FBS, penicillin (100 IU/mL), streptomycin (100 μg/mL), 2% glutamine and 5% human serum AB (Lonza) for seven days.
(§2) Human CB and BM-derived haematopoietic stem/progenitor cells (HSPC) were cultured in serum-free StemSpan medium (StemCell Technologies) supplemented with 100 ng/mL recombinant human stem cell factor (rhSCF), 20 ng/mL recombinant human thrombopoietin (rhTPO), 100 ng/mL recombinant human Flt3 ligand (rhFlt3) and 20 ng/mL recombinant human IL6 (rhIL6) (all from Peprotech) 16 to 24 hours prior to transduction. […] After transduction, cells were washed and maintained serum-free StemSpan supplemented with cytokines as above until the reading of GFP-positive (GFP+) cells by FACS. […]
(§3) GFP expression in transduced cells was measured 5-7 days post-transduction. […]

[1] = system: cord blood (CB)-derived CD34+ cells; details: CB-derived CD34+ HSPC, MOI 1, 20 μm FK506, 5 mM 3-MA alone or with 10 μM CsA / 10 μg/mL rapamycin
Procedure: (§4) Human CB and BM-derived haematopoietic stem/progenitor cells (HSPC) were cultured in serum-free StemSpan medium (StemCell Technologies) supplemented with 100 ng/mL recombinant human stem cell factor (rhSCF), 20 ng/mL recombinant human thrombopoietin (rhTPO), 100 ng/mL recombinant human Flt3 ligand (rhFlt3) and 20 ng/mL recombinant human IL6 (rhIL6) (all from Peprotech) 16 to 24 hours prior to transduction. HSPC were then transduced at a concentration of 1×10^6 cells per mL with vesicular stomatitis virus glycoprotein (VSV-G)-pseudotyped SINLV for 20 hours at the indicated multiplicity of infection (MOI) in the same medium. After transduction, cells were washed and maintained serum-free StemSpan supplemented with cytokines as above until the reading of GFP-positive (GFP+) cells by FACS. After FACS they were maintained in Roswell Park Memorial Institute medium (RPMI, Lonza) supplemented with 10% FBS, 25 ng/mL rhSCF, 5 ng/mL rhIL6, 25 ng/mL rhFlt3 and 5 ng/mL rhTPO for another seven days before analysis of vector copy numbers. MDM were transduced 7 days after differentiation. T lymphocytes were transduced at a concentration of 10^6 cells per mL, after 3 days of stimulation. All the cells were exposed to the vector for 16-20 hours.
(§5) They were added to the transduction medium at the indicated concentration and washed out with the vector 16-20 hours later.
(§6) GFP expression in transduced cells was measured 5-7 days post-transduction. Adherent MDM were detached by scraping in 5 mM PBS-EDTA, washed and resuspended in PBS containing 2% FBS. Cells grown in suspension were washed and resuspended in PBS containing 2% FBS. […]
(§7) DNA from cell cultures was extracted using a Maxwell 16 instrument (Promega) or Blood & Cell Culture DNA Micro Kit (Qiagen). […] Vector copy numbers and replication intermediates were normalised to genomic DNA content, which was assessed using the human TERT gene. Quantitative polymerase chain reaction (qPCR) primers and probe sequences and conditions were previously described (Santoni de Sio, F. R. et al (2006) Blood 107: 4257-65).

[2] = system: bone marrow (BM)-derived CD34+ cells; details: BM-derived CD34+ HSPC; MOI 1; 20 μm FK506, 5 mM 3-MA alone or with 10 μM CsA / 10 μg/mL rapamycin
Procedure: as §4, §5, §6, §7

[3] = system: monocyte-derived macrophages (MDM); test: SINLV-GFP lentiviral transduction of monocyte-derived macrophages; details: MOI 1, 20 μm FK506
Procedure: as §1, §2, §3

Compound: C=CC[C@@H]1/C=C(\C)C[C@H](C)C[C@H](OC)[C@H]2O[C@@](O)(C(=O)C(=O)N3CCCC[C@H]3C(=O)O[C@H](/C(C)=C/[C@@H]3CC[C@@H](O)[C@H](OC)C3)[C@H](C)[C@@H](O)CC1=O)[C@H](C)C[C@@H]2OC [FK-506]
- impact on LV transduction efficiency (in words) (CD4+ T cells): no impact
- impact on LV transduction efficiency (in words) [1]: no impact
- impact on LV transduction efficiency (in words) ([1]; listed as FK506): did not affect
- impact on LV transduction efficiency (in words) [2]: no impact
- impact on LV transduction efficiency (in words) [3]: no impact
